{"sequences": {"note": "Protein sequences, listed by entry. Tags and fused reporters are not part of them. Lines headed by an entry give the natural chain unless they say otherwise; changes in a name come on top.", "UniProt Q04609": "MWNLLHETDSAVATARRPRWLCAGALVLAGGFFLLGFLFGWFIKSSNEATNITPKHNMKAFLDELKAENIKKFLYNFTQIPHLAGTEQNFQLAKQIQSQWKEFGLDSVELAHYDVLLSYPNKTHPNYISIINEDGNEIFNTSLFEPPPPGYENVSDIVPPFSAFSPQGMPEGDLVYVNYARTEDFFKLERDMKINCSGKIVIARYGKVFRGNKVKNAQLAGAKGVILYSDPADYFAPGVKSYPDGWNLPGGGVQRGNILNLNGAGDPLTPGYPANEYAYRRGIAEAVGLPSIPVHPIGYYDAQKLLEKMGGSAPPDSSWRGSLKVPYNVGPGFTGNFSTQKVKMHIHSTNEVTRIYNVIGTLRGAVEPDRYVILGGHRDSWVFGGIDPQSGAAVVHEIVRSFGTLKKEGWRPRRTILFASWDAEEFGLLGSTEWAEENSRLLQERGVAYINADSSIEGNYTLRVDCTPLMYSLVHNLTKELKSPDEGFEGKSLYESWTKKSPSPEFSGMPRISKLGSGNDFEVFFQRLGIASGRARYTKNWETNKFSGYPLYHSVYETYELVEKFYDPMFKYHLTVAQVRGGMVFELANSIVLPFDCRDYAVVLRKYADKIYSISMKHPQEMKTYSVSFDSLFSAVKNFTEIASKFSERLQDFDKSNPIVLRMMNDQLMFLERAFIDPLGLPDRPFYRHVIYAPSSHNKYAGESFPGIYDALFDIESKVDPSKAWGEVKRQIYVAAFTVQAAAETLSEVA"}, "source": "patent US20100234450", "molecular_target": "PSMA (prostate-specific membrane antigen) (Homo sapiens) (UniProt Q04609)", "assay": "binding assay", "details": "5'-NOTA chelator via linker; in vivo PET, 22Rv1(1.7) xenograft in nude mouse, tumor:background 8:1 at 120 min; protein on the cell surface; label: 68Ga; variant of A10-3.2 (32P)", "note": "Where cells or extracts were used, other partners may take part.", "data": [{"sequence": "GGGAGGACGAUGCGGAUCAGCCAUGUUUACGUCACUCCU [68Ga-NOTA-A10-3.2]", "values": [{"measurement": "binding result", "value": "binds"}]}]}
